For 56 compounds, AC50 results are on record in PubChem BioAssay AID1487 (National Center for Advancing Translational Sciences (NCATS), 2009).

Some of the results follow. The main result of the screen is listed elsewhere. These columns were measured beside it and carry no call. The list favours compounds with an active or inconclusive main result. The note in brackets gives the kind of curve behind each potency; many fits are weak.

The test in a line: qHTS Assay for Modulators of Lamin A Splicing. To be noted: HeLa LMNA splicing GFP/RFP minigene ratio, 48 h. The gist of the method: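 Read-out is the ratio of GFP to DsRed2 object intensity, acquired by 488 nm laser-scanning cytometry on HeLa lamin A-EGFP minigene reporter cells. Compound incubation 48 hrs at 37 °C in Opti-MEM with 2% FBS; DMSO 0.5% final.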
[1] abbreviates: measured here: RFP viability control channel.
Where [2] appears, read: measured here: GFP splicing reporter channel.

What is called AC50 is the concentration giving half of the maximal activity seen. For `O=C(CN1C2=NCCCN2c2ccccc21)c1ccc(Br)s1`, the AC50 under setting [1] is 20 µM [rising, single point].

Turning to `N#CC(C#N)=C(Nc1ccc(F)cc1)SCc1cccc(Br)c1`, the AC50 was 5.01 µM [rising, full curve] under setting [2] and 6.31 µM [rising, full curve] under setting [1]. Consider `O=C(Nn1c(-c2ccc(Br)cc2)nc2ccccc2c1=O)c1cccnc1`, for which the AC50 by setting is: under setting [2], 1.26 µM [rising, single point]; under setting [1], 1.26 µM [rising, single point].

With `CC(NC(=S)NCCc1ccccc1)C(c1cccs1)N1CCN(Cc2ccccc2)CC1` (configuration not stated), under setting [1], the AC50 is 12.6 µM [rising, partial curve].

As for `CCc1nnc(NC(=O)CSc2nc3c([nH]c4ccccc43)c(=O)n2-c2ccc(Cl)cc2)s1`, the AC50 under setting [2] is 6.31 µM [falling, partial curve, poor fit] and the AC50 under setting [1] was 15.8 µM [falling, partial curve]. Turning to `CCOC(=O)C1=C(CSc2nc3ccccc3s2)NC(=O)NC1c1ccc(OC)cc1` (configuration not stated), the AC50 is, setting by setting: under setting [2], 10 µM [falling, partial curve]; under setting [1], 22.4 µM [falling, single point]. Take `C=CCN(c1ccccc1)S(=O)(=O)c1ccc(Cl)c(C(=O)OCC(=O)c2[nH]c(C)c(C(C)=O)c2C)c1`: the AC50 under setting [1] was 15.8 µM [rising, single point]. Take `CC(/C=C1\SC(=S)N(NC(=O)c2ccccc2C)C1=O)=C\c1ccccc1`: the AC50 under setting [1] is 31.6 µM [rising, single point]. Consider `COc1ccc(CC(=O)Nc2nc3c(s2)CCCC3)cc1`, for which the AC50 is 3.98 µM [falling, full curve, poor fit] under setting [2] and 31.6 µM [rising, single point] under setting [1]. On to `CS(=O)(=O)N1CCN(c2ncnc3c2cnn3-c2ccccc2)CC1`, for which the AC50 under setting [1] is 3.98 µM [falling, single point]. On to `NC1=NC(=Nc2ccccc2)c2ccccc21`, for which the AC50 under setting [1] is 25.1 µM [rising, single point]. With `COc1ccc(NS(=O)(=O)c2ccc(N3CCCC3)c(NC(=S)Nc3cccc(S(=O)(=O)N(C)C)c3)c2)cc1`, the AC50 under setting [1] was 3.98 µM [rising, partial curve]. The same measure, in the same setting: then `CC(=O)c1cccc(NC(=O)c2ccc3nc(Cc4ccccc4)oc3c2)c1`, with 35.5 µM [rising, single point].

In the case of `c1ccc(CN2CCN(c3nc(-c4ccccc4)nc(-n4ccnc4)n3)CC2)cc1`, the AC50 reads like this: under setting [2], 35.5 µM [rising, single point]; under setting [1], 31.6 µM [rising, single point]. In the case of `COc1ccc(-c2c(C)c3ccc(O)c(CN4CCOCC4)c3oc2=O)cc1OC`, under setting [2], the AC50 is 0.562 µM [rising, single point]. Regarding `COc1cc(S(=O)(=O)N(Cc2ccc(C)cc2)Cc2ccco2)ccc1-n1cnnn1`, under setting [1], the AC50 is 22.4 µM [rising, single point]. As for `Cc1cc(C)c2c(c1)c(C)cc1nnc(SCC(=O)c3ccccc3)n12`, the AC50 under setting [1] is 0.2 µM [falling, full curve, poor fit]. For `O=C(COc1ccccc1[N+](=O)[O-])N/N=C/c1cccs1`, the AC50 under setting [1] is 12.6 µM [rising, partial curve]. As for `CCCCOC(=S)NC(=O)c1sc2ccccc2c1Cl`, the half-maximal activity concentration (AC50) under setting [2] was 35.5 µM [rising, single point]. Take `CC(C)c1[nH]nc2c1C(C1C=CCCC1)C(C#N)=C(N)O2` (configuration not stated): the AC50 under setting [1] is 35.5 µM [falling, single point]. For `C=CCn1c(COc2ccccc2)nnc1SCc1ccc(C#N)cc1`, the AC50 runs as follows: under setting [2], 22.4 µM [rising, single point]; under setting [1], 25.1 µM [rising, single point].

In the case of `COC(=O)c1ccc(CSC(=N)N)o1`, the AC50 under setting [2] was 35.5 µM [falling, single point]. Consider `Cc1cc2[nH]c(=O)c(=O)[nH]c2cc1S(=O)(=O)N1CCN(c2cccc(Cl)c2)CC1`, for which the AC50 under setting [2] is 35.5 µM [rising, partial curve, poor fit]. `Cc1ccc(S(=O)(=O)Oc2ccc(C)cc2/C=N/N=C2\NC(=O)C(C)S2)cc1` (configuration not stated): under setting [1], the AC50 was 31.6 µM [rising, single point]. `CCCCN(CC)CCNC(=O)CCC(=O)Nc1ccc2nc(N3CCN(C)CC3)cc(C)c2c1`: the AC50 under setting [2] was 2.51 µM [falling, full curve] and the AC50 under setting [1] is 1.26 µM [falling, full curve, poor fit]. For the compound `Clc1ccc(OCc2nc(-c3ccncc3)no2)c(Br)c1`, under setting [1], the AC50 was 12.6 µM [rising, partial curve, poor fit].

On to `O=c1cc(O)nc(SCc2ccc(Cl)cc2)[nH]1`, for which the AC50 under setting [2] is 3.98 µM [rising, single point]. In the case of `COc1cc(NS(=O)(=O)c2ccc(Br)s2)cc(OC)c1`, the AC50 was 12.6 µM [rising, single point] under setting [2] and 22.4 µM [rising, single point] under setting [1].

As to `CNc1nc(N)c([N+](=O)[O-])c(Nc2cccc(Cl)c2)n1`, the concentration at half-maximal activity (AC50) under setting [2] is 0.00447 µM [rising, full curve, poor fit].

Take `COc1ccc(NC(=O)CN2CCN(C3c4ccccc4-c4ccccc43)CC2)cc1`: the AC50 under setting [2] was 15.8 µM [rising, single point]. For the compound `Cc1nc(NC(=O)COC(=O)c2cc3c(s2)CCC(C)C3)c(Cl)cc1Cl` (configuration not stated), the AC50 under setting [2] is 35.5 µM [falling, partial curve].

With `CCN(CC)CCn1c2ccccc2c2cnc(N)c(C#N)c21`, under setting [1], the AC50 is 8.91 µM [rising, partial curve]. For the compound `Cn1ccnc1SCC(=O)c1ccc([N+](=O)[O-])cc1`, the AC50 is 8.91 µM [falling, partial curve, poor fit] under setting [2] and 7.94 µM [falling, partial curve] under setting [1]. Regarding `CN1C(=O)C2(C(C#N)=C(N)N(c3cc(Cl)cc(Cl)c3)C3=C2C(=O)CC(C)(C)C3)c2ccccc21` (configuration not stated), the AC50 is 7.08 µM [rising, partial curve] under setting [2] and 5.01 µM [rising, full curve] under setting [1]. `C/C(=N\Nc1nc(Nc2ccccc2)nc(N2CCOCC2)n1)c1cccs1`: the AC50 under setting [2] is 1.41 µM [falling, full curve, poor fit].

For `CCn1ncc(C2=NOC(C(=O)Nc3ccc(C)cc3)C2)c1C` (configuration not stated), the AC50 is 12.6 µM [rising, single point] under setting [2] and 12.6 µM [rising, partial curve] under setting [1]. `Cc1ccc2c(CC(=O)OCC(=O)Nc3ccc(Cl)cn3)coc2c1`: the AC50 under setting [1] was 5.62 µM [rising, single point].

For the compound `COc1ccc(N(C)S(=O)(=O)c2cccc(C(=O)Nc3ccc(-n4cnnn4)cc3)c2)cc1`, the AC50 by setting is: under setting [2], 25.1 µM [rising, single point]; under setting [1], 35.5 µM [rising, single point]. In the case of `COc1ccc2[nH]cc(CCNc3cc(-c4cccc(C#N)c4)ncn3)c2c1`, the AC50 under setting [2] is 35.5 µM [falling, single point]. On to `CCCCOC(=O)Nc1cc(OC)c(Cl)cc1OC`, for which the AC50 under setting [1] was 0.447 µM [rising, full curve, poor fit]. Consider `c1ccc(C2=Nc3ccccc3OC2)cc1`, for which, under setting [1], the AC50 is 35.5 µM [rising, single point]. For `CN(C)/C=N/c1ncn(-c2ncc(C(F)(F)F)cc2Cl)n1`, the AC50 under setting [2] was 0.0251 µM [rising, full curve, poor fit]. In the case of `Nc1nc(CN2CCN(c3ccccc3F)CC2)nc(Nc2ccccc2)n1`, the AC50 under setting [2] was 35.5 µM [rising, single point]. For the compound `O=C(Nc1cccc(Oc2c(F)c(F)c(F)c(F)c2F)c1)N1C[C@@H]2C[C@@H](C1)c1cccc(=O)n1C2`, the AC50 under setting [2] is 3.98 µM [rising, partial curve, poor fit]. Consider `COC(=O)c1ccccc1NC(=O)n1cc(C)cn1`, for which the concentration at half-maximal activity (AC50) under setting [1] is 0.501 µM [falling, full curve, poor fit]. For the compound `Cc1cc2c(cc1S(=O)(=O)Nc1cc(C(F)(F)F)cc(C(F)(F)F)c1)OCC(=O)N2`, the AC50 under setting [2] was 0.0398 µM [falling, full curve, poor fit]. Consider `Cc1cccc(NC(=S)NCCc2ccccc2)n1`, for which the AC50 under setting [1] is 20 µM [rising, single point]. As for `O=C(NCCCOc1cccc(CN2CCCCC2)c1)c1ccc(Cl)c(Cl)c1`, under setting [2], the AC50 is 10 µM [rising, partial curve].

Turning to `COc1ccc(C)cc1N(C(=O)COc1ccccc1)c1nc2ccccc2s1`, under setting [1], the AC50 is 8.91 µM [rising, partial curve]. On to `Cc1ccc2nc(NNC(=O)c3ccc4c(c3)OCCO4)sc2c1`, for which the AC50 was 35.5 µM [rising, single point] under setting [2] and 35.5 µM [rising, single point] under setting [1]. Turning to `CC(=O)O[C@H]1C(=O)[C@@]2(C)[C@H]([C@H](OC(=O)c3ccccc3)[C@]3(O)C[C@H](OC(=O)[C@H](O)[C@@H](NC(=O)c4ccccc4)c4ccccc4)C(C)=C1C3(C)C)[C@]1(OC(C)=O)CO[C@@H]1C[C@@H]2O`, the AC50 under setting [2] was 35.5 µM [falling, single point] and the AC50 under setting [1] was 0.224 µM [rising, full curve].

In the case of `COc1ccccc1N1CCN(C(c2cccs2)C(C)NC(=O)c2cccnc2)CC1` (configuration not stated), the AC50 under setting [1] was 3.98 µM [falling, partial curve, poor fit]. With `O=C(Nc1cccc(C(F)(F)F)c1)C1CCCN(c2ncccn2)C1` (configuration not stated), the AC50 runs as follows: under setting [2], 14.1 µM [rising, partial curve]; under setting [1], 17.8 µM [rising, single point]. For `OCCN(CCO)c1ncnc2c1sc1nc(N3CCOCC3)c3c(c12)CCCC3`, the AC50 under setting [1] is 31.6 µM [rising, single point]. `COc1ccc2nc(C)[nH]c(=O)c2c1`: under setting [1], the half-maximal activity concentration (AC50) was 0.794 µM [falling, full curve, poor fit]. With `CC(=O)Nc1ccc(S(=O)(=O)N(C)CC(=O)OCC(=O)c2cc(C)n(-c3ccc4c(c3)OCO4)c2C)cc1`, the AC50 under setting [2] was 35.5 µM [falling, single point].
